{
  "sequences": {"note": "Sequences of proteins named here, by UniProt entry; tags and fusion partners are left off.", "UniProt Q2G184": "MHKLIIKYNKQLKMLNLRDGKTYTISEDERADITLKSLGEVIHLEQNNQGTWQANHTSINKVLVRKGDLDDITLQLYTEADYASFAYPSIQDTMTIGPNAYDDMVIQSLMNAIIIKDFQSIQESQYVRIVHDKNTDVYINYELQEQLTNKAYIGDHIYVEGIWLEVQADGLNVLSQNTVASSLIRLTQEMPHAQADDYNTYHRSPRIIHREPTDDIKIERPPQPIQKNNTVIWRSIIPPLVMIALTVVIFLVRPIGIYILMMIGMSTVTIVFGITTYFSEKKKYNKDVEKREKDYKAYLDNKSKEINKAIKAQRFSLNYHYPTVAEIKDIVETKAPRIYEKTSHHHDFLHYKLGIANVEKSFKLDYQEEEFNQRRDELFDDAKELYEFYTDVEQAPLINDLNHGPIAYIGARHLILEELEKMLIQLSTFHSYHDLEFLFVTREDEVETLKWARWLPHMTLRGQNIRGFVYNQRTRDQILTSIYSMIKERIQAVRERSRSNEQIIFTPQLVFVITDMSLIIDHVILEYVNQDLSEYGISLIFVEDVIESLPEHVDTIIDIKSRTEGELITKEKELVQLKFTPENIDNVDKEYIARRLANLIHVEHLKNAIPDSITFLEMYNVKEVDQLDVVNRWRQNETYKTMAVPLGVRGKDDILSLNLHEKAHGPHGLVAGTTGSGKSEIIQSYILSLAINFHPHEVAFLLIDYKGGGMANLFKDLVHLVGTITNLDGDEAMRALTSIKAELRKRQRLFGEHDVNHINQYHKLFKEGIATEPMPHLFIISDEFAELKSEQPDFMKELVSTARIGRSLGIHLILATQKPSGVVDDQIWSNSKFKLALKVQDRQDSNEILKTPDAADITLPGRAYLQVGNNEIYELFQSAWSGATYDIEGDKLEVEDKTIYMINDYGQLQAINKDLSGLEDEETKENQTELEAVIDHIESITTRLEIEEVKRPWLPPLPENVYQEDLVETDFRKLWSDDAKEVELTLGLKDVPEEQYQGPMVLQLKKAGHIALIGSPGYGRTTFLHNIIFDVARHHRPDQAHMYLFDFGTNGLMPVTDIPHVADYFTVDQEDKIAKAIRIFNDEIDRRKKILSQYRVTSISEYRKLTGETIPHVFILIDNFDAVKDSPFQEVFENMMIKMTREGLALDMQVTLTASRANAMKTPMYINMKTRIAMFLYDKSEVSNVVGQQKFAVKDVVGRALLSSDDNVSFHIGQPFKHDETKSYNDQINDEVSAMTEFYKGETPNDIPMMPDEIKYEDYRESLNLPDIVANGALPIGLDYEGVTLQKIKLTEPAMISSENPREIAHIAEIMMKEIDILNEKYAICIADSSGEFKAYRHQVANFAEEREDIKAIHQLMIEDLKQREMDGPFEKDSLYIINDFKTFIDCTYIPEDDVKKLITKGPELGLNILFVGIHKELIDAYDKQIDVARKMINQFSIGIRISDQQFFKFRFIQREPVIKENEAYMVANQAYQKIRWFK", "UniProt Q2G189": "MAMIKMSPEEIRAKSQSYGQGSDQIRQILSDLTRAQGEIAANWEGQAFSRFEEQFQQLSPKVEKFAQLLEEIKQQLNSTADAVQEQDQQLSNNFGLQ", "UniProt Q2G188": "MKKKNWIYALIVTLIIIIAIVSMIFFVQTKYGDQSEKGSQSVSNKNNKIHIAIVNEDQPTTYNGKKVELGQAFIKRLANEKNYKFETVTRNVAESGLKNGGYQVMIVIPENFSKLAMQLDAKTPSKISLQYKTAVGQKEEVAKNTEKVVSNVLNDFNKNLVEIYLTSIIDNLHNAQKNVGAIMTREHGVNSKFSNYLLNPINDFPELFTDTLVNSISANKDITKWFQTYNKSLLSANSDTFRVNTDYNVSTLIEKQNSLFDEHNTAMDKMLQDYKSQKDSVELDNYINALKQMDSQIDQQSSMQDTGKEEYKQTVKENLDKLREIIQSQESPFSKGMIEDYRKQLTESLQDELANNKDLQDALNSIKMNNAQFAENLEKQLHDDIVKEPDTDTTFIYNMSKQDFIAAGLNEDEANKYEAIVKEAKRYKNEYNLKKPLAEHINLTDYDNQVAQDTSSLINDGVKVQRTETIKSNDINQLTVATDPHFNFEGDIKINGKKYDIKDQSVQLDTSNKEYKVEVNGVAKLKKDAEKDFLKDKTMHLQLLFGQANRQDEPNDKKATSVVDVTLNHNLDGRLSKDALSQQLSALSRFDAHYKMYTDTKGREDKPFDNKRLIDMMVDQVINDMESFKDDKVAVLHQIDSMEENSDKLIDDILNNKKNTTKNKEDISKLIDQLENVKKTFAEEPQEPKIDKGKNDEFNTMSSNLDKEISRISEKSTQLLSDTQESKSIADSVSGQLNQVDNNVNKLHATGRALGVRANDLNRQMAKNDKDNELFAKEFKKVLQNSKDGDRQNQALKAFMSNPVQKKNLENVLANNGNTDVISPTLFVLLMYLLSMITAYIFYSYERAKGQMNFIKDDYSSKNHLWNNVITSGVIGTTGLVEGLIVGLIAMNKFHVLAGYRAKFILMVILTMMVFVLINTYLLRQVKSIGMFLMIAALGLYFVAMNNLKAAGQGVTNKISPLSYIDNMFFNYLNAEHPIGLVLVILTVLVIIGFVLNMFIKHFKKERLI", "UniProt Q2G185": "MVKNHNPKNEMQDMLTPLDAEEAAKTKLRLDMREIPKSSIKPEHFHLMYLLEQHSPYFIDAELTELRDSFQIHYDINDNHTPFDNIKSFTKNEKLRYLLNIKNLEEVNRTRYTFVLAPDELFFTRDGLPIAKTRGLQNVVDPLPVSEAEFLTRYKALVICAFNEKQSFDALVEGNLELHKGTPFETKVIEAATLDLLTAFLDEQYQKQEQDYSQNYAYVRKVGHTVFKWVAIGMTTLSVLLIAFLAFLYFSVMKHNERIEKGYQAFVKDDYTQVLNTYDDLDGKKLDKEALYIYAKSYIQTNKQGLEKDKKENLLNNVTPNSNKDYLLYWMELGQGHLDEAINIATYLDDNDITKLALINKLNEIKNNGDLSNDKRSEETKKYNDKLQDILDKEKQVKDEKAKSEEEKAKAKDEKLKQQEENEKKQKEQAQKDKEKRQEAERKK"},
  "source": "paper PMC13059805",
  "note": "No constants are given. Whether binding was seen depends on the method and setting. In cells and extracts the contact can be indirect. Some entries that bind do so weakly or less than the wild type.",
  "data": [
    {"target": "EssC with a C-terminal Twin-Strep tag (S. aureus USA300 LAC*) (UniProt Q2G184)", "assay": "pull-down; EssCTS held on Strep-Tactin Sepharose from 0.25% DDM extracts of S. aureus membranes (wild type, ∆essH and ∆esaA hosts, T7 permissive culture); 4°C, Buffer A (20 mM Tris pH 8, 300 mM NaCl, 10% glycerol), wash with amphipol A8-35, elution with 5 mM desthiobiotin; eluates immunoblotted; untagged EssC as control", "values": [
      {"substance": "EsxA (from UniProt Q2G189 1-97)", "binding": "binds"},
      {"substance": "EsaA (from UniProt Q2G188 1-1009)", "binding": "binds"},
      {"substance": "EssB (from UniProt Q2G185 1-444)", "binding": "binds"}
    ]}
  ]
}
